Literature values in US20150157714A1, “IMPLEMENTATION OF NON-PATHOGENIC BIOLUMINESCENT BACTERIA AS A SUB-MICRON LIGHT EMITTING SOURCE FOR PHOTO-DYNAMIC THERAPY IN THE LUNGS” (priority 2013, published 2015).

Conditions: absorption spectra wavelengths for photochemical interactions

CCN(CC)c1ccc2cc3ccc(=[N+](CC)CC)cc-3oc2c1.[Cl-] [Pyronin B]
Spectral Absorption Ranges and Peaks: 510-560 nm
